Test results reported in the supplement of paper PMC12823440, “Inhibitors supercharge kinase turnover through native proteolytic circuits” (Nature, 2025).
Where a name gives a salt, the structure may show the parent alone. The list shows a part of the results. The calls rarely recur for the same compound in another form.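 Kinases, fused to nanoluciferase, were expressed in K562 cells; luminescence was measured every 4 h from 2 to 18 h as percent of control (DMSO = 100%, positive control = 0%). A time point is decreased if signal falls significantly (2 sigma). Hits were called by the authors by a rule that is not shown; the count of time points alone does not decide it.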

Amino acid sequences for entries named in this document (tags omitted). A change or cut given only in a name is not applied to a line headed by its entry.
UniProt P31749: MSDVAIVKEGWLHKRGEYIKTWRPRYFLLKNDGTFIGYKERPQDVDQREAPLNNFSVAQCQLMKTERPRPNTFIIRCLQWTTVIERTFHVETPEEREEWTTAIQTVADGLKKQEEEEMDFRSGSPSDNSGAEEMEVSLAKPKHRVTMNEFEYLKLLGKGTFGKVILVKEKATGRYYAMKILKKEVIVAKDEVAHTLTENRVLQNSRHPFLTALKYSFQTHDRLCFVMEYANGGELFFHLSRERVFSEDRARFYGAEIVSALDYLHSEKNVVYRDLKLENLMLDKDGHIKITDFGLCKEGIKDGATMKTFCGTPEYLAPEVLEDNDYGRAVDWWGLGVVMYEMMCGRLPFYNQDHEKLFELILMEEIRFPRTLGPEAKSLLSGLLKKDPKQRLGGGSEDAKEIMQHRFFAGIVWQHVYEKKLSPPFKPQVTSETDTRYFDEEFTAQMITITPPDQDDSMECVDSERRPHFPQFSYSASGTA
UniProt Q9UM73: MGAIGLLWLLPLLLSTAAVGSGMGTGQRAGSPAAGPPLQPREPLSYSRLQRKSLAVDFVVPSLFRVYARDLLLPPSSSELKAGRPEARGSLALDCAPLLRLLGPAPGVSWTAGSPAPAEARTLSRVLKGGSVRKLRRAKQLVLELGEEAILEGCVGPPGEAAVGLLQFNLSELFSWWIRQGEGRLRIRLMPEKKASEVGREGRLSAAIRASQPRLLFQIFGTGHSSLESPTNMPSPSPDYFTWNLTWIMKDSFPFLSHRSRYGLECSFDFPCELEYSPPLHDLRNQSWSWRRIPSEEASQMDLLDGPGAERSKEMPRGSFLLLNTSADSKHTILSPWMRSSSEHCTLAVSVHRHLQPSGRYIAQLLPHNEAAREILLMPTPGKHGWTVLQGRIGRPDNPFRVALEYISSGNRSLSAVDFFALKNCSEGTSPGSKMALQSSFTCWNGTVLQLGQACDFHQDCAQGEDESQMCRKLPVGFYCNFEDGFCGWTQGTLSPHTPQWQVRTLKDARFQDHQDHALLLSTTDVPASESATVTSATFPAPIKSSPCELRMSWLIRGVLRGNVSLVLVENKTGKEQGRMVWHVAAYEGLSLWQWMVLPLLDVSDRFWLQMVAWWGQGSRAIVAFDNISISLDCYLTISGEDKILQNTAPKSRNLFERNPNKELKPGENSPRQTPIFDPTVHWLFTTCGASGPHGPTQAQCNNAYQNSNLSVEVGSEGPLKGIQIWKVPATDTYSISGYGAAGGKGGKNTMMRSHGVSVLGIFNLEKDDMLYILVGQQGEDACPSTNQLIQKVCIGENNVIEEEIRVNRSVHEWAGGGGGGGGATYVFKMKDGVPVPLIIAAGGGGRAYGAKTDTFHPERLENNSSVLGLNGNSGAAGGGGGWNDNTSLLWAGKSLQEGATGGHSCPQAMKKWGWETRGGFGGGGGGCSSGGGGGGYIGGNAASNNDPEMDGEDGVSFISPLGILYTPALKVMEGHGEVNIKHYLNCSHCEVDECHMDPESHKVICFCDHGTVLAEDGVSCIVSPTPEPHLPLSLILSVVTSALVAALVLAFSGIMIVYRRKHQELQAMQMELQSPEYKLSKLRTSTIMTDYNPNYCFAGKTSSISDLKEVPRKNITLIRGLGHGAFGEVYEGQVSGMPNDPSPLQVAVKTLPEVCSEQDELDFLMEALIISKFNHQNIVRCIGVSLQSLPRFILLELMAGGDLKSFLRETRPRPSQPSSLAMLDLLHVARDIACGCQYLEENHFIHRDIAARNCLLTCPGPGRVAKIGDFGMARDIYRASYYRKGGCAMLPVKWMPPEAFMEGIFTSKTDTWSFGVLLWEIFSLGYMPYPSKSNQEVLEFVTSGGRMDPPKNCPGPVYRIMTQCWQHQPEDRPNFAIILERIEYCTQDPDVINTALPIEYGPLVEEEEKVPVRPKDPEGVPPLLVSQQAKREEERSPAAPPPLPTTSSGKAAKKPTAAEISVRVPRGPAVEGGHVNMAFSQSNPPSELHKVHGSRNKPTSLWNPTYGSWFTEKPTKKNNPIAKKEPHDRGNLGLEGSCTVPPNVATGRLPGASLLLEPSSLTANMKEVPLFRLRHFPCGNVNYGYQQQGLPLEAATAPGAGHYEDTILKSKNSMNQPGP
UniProt P10398: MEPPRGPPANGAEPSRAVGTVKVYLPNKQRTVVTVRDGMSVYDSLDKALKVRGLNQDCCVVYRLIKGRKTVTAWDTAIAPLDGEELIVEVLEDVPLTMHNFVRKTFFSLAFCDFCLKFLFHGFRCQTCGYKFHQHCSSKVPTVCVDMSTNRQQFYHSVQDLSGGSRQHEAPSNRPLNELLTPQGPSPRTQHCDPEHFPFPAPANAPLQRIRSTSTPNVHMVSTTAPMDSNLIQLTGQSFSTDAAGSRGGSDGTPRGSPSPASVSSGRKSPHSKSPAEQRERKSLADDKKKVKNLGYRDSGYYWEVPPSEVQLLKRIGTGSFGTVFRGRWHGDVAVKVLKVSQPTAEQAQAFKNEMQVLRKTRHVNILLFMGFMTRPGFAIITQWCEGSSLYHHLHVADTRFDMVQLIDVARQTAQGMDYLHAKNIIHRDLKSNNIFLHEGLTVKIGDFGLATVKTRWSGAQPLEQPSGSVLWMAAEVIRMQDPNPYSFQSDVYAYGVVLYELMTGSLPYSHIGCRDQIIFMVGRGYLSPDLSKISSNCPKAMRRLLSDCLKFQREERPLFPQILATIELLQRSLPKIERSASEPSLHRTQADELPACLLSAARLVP
UniProt O14965: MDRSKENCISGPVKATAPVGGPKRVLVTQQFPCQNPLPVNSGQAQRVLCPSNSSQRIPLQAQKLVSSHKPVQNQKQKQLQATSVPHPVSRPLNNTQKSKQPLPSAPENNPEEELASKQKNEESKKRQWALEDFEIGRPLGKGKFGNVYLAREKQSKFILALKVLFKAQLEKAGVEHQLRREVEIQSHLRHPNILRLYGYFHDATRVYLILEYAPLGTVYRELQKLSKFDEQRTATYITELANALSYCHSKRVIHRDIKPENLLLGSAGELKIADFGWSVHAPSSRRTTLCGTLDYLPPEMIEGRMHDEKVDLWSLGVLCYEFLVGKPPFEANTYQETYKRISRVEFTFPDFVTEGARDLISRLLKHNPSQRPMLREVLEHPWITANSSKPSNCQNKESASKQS
UniProt Q96GD4, whole entry: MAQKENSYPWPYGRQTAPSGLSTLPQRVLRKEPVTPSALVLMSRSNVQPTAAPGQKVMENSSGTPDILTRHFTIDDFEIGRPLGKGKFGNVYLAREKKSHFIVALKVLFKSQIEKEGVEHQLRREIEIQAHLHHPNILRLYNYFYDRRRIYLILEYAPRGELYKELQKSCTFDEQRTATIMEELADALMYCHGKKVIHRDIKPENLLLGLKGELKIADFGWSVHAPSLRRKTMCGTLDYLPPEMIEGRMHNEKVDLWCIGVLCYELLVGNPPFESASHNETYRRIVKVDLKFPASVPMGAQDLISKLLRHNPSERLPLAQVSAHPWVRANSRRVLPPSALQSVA
UniProt Q9UQB9: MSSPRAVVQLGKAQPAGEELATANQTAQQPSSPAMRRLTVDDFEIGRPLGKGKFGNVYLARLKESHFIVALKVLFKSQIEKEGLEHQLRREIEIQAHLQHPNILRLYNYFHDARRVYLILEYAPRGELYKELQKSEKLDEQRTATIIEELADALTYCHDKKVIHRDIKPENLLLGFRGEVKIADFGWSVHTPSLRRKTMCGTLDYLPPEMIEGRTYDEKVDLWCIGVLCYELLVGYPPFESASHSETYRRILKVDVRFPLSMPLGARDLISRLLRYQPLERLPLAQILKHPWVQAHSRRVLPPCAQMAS
UniProt P51451: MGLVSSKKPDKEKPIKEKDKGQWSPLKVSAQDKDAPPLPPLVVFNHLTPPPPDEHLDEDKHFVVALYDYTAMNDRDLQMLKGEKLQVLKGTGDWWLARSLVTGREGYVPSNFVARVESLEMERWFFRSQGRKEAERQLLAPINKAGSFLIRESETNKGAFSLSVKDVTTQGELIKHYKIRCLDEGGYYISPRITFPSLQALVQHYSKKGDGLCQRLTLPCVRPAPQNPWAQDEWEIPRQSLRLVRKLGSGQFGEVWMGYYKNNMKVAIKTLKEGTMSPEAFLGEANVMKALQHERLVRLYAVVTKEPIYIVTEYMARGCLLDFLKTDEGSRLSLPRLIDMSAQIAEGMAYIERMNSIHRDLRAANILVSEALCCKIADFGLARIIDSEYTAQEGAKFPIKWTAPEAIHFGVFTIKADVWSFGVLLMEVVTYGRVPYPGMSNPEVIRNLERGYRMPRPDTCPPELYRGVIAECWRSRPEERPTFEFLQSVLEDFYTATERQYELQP
UniProt P51813: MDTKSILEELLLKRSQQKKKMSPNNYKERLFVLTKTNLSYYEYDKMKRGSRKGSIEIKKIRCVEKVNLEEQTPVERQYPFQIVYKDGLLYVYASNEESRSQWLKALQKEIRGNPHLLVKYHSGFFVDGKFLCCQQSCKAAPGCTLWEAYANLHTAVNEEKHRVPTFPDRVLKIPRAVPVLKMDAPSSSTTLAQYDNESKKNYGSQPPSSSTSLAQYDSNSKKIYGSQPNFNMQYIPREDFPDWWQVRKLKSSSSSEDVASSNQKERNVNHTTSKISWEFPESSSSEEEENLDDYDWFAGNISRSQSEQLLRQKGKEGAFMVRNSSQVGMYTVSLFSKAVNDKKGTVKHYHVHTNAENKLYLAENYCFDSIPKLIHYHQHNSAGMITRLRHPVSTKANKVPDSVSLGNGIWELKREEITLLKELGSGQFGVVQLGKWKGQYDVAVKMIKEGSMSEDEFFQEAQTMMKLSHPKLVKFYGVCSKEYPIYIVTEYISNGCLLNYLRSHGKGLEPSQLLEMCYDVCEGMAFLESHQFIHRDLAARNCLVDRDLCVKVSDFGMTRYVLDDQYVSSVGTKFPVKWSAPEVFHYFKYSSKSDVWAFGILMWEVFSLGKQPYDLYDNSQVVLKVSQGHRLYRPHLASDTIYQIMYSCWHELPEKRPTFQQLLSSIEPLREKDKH
UniProt P15056, whole entry, looked up: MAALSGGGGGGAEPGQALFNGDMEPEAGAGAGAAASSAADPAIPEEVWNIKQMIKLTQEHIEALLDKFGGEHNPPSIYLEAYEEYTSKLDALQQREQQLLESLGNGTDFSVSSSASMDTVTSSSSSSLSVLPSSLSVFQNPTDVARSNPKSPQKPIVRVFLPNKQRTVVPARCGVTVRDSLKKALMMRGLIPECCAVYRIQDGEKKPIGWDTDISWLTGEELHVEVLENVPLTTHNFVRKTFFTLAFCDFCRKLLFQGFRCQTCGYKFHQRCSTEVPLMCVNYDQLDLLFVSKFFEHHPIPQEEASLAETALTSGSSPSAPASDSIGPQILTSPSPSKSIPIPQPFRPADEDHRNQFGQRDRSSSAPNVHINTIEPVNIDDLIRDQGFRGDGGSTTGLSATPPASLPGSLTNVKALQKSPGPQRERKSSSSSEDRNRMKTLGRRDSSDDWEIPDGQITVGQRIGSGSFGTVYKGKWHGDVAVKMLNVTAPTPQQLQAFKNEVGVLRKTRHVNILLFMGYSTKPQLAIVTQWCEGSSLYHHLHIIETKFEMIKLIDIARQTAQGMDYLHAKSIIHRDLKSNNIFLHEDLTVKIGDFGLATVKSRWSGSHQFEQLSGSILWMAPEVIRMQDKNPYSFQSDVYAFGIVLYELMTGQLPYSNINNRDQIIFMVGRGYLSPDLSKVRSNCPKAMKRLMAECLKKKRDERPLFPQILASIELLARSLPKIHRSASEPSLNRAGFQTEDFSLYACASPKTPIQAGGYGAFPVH

Tests used:
Assay in all cases: kinase-Nluc reporter destabilization hit call (1 = scored as downregulated) (binary); higher = compound decreases kinase abundance
Conditions in all cases: K562; 2-18 h
ABL1 = ABL1 (UniProt P00519)
AKT1 = AKT1 (UniProt P31749)
ALK = ALK (UniProt Q9UM73)
ARAF = ARAF (UniProt P10398)
AURKA = AURKA (UniProt O14965)
AURKB = AURKB (UniProt Q96GD4)
AURKC = AURKC (UniProt Q9UQB9)
BLK = BLK (UniProt P51451)
BMX = BMX (UniProt P51813)
BRAF = BRAF (UniProt P15056)

Measured: kinase-Nluc reporter destabilization hit call

COc1cc(N2CCC(N)CC2)ccc1Nc1ncc(Cl)c(-c2c[nH]c3ccccc23)n1 (2.5 µM)
inactive: ABL1 = 0 | AKT1 = 0 | ALK 0 | ARAF 0 | AURKA 0 | AURKB 0 | AURKC 0 | BLK 0 | BMX 0 | BRAF 0

COc1ccc(COc2ccc(Cc3cnc(N)nc3N)cc2OC)cc1 (10 µM)
inactive: ABL1 = 0 | AKT1 = 0 | ALK 0 | ARAF 0 | AURKA 0 | AURKB 0 | AURKC 0 | BLK 0 | BMX 0 | BRAF 0

C=CC(=O)Nc1ccc2ncnc(Nc3cccc(Br)c3)c2c1 (10 µM)
inactive: ABL1 = 0 | AKT1 = 0 | ALK 0 | ARAF 0 | AURKA 0 | AURKB 0 | AURKC 0 | BLK 0 | BMX 0 | BRAF 0

COc1cc(CCc2cc(-c3nc4ccc(N5CCN(C)CC5)cc4[nH]3)n[nH]2)cc(OC)c1 (10 µM)
inactive: ABL1 = 0 | AKT1 = 0 | ALK 0 | ARAF 0 | AURKA 0 | AURKB 0 | AURKC 0 | BLK 0 | BMX 0 | BRAF 0

Cc1ccc(S(=O)(=O)Nc2nc3ccccc3nc2Nc2ccc3nsnc3c2)cc1 [Pilaralisib analogue] (10 µM)
active: BRAF 1
inactive: ABL1 = 0 | AKT1 = 0 | ALK 0 | ARAF 0 | AURKA 0 | AURKB 0 | AURKC 0 | BLK 0 | BMX 0

CCOc1cc2ncc(C#N)c(Nc3ccc(OCc4ccccn4)c(Cl)c3)c2cc1NC(=O)/C=C/CN(C)C [Neratinib] (10 µM)
inactive: ABL1 = 0 | AKT1 = 0 | ALK 0 | ARAF 0 | AURKA 0 | AURKB 0 | AURKC 0 | BLK 0 | BMX 0 | BRAF 0

COc1ccc(Oc2cc(NCCC(F)(F)F)c3ncc(-c4ccc(C(=O)NC5CC5)c(C)c4)n3n2)c(F)c1F (2.5 µM)
inactive: ABL1 = 0 | AKT1 = 0 | ALK 0 | ARAF 0 | AURKA 0 | AURKB 0 | AURKC 0 | BLK 0 | BMX 0 | BRAF 0

Cc1ccc2c(Nc3cccc(OC(F)(F)F)c3)nccc2c1Nc1ncccc1-c1ncnc2[nH]cnc12 (10 µM)
inactive: ABL1 = 0 | AKT1 = 0 | ALK 0 | ARAF 0 | AURKA 0 | AURKB 0 | AURKC 0 | BLK 0 | BMX 0 | BRAF 0

CNC(=O)c1cccc(-c2ccc3c(N4CCOC[C@@H]4C)nc(N4CCOC[C@@H]4C)nc3n2)c1 [Vistusertib] (2.5 µM)
inactive: AKT1 = 0 | ALK 0 | ARAF 0 | AURKA 0 | AURKB 0 | AURKC 0 | BLK 0 | BMX 0 | BRAF 0
active: ABL1 = 1

COc1c(CC=C(C)C)c(O)cc2oc(=O)c(-c3ccc(O)cc3O)cc12 [Glycycoumarin] (10 µM)
inactive: ABL1 = 0 | AKT1 = 0 | ALK 0 | ARAF 0 | AURKA 0 | AURKB 0 | AURKC 0 | BLK 0 | BMX 0 | BRAF 0

c1cc(OCCN2CCCCC2)cc(-c2n[nH]c3ccc(-c4nnc[nH]4)cc23)c1 [CC-401 (hydrochloride)] (10 µM)
inactive: ABL1 = 0 | AKT1 = 0 | ALK 0 | ARAF 0 | AURKA 0 | AURKB 0 | AURKC 0 | BLK 0 | BMX 0 | BRAF 0

N#C/C(=C\c1ccc(O)c(O)c1)C(=O)NCCCc1ccccc1 (10 µM)
inactive: ABL1 = 0 | AKT1 = 0 | ALK 0 | ARAF 0 | AURKA 0 | AURKB 0 | AURKC 0 | BLK 0 | BMX 0 | BRAF 0

CN1CCN(c2ccc(Nc3cc(-c4cccc(-n5ccc6cc(C7CC7)cc(F)c6c5=O)c4CO)cn(C)c3=O)nc2)CC1 (2.5 µM)
inactive: ABL1 = 0 | AKT1 = 0 | ALK 0 | ARAF 0 | AURKA 0 | AURKB 0 | AURKC 0 | BLK 0 | BMX 0 | BRAF 0

O=c1oc2ccccc2c(O)c1Cc1c(O)c2ccccc2oc1=O [Dicoumarol] (10 µM)
inactive: ABL1 = 0 | AKT1 = 0 | ALK 0 | ARAF 0 | AURKA 0 | AURKB 0 | AURKC 0 | BLK 0 | BMX 0 | BRAF 0

Cc1c(C(=O)N2CCOc3ccc(-c4ccc(N)nc4)cc3C2)ccc(S(C)(=O)=O)c1F (10 µM)
active: ABL1 = 1
inactive: AKT1 = 0 | ALK 0 | ARAF 0 | AURKA 0 | AURKB 0 | AURKC 0 | BLK 0 | BMX 0 | BRAF 0

NC(=O)c1ccc2nc(-c3ccc(Oc4ccc(Cl)cc4)cc3)[nH]c2c1 (10 µM)
inactive: ABL1 = 0 | AKT1 = 0 | ALK 0 | ARAF 0 | AURKA 0 | AURKB 0 | AURKC 0 | BLK 0 | BMX 0 | BRAF 0

C[C@]1(O)C[C@@H](c2nc(-c3ccc4ccc(-c5ccccc5)nc4c3)c3c(N)nccn32)C1 [Linsitinib] (2.5 µM)
inactive: ABL1 = 0 | AKT1 = 0 | ALK 0 | ARAF 0 | AURKA 0 | AURKB 0 | AURKC 0 | BLK 0 | BMX 0 | BRAF 0

O=c1oc2c(O)c(O)cc3c(=O)oc4c(O)c(O)cc1c4c23 [Ellagic acid] (10 µM)
inactive: ABL1 = 0 | AKT1 = 0 | ALK 0 | ARAF 0 | AURKA 0 | AURKB 0 | AURKC 0 | BLK 0 | BMX 0 | BRAF 0

CCN(CCO)CCCOc1ccc2c(Nc3cc(CC(=O)Nc4cccc(F)c4)[nH]n3)ncnc2c1 [Barasertib-HQPA] (10 µM)
inactive: ABL1 = 0 | AKT1 = 0 | ALK 0 | ARAF 0 | AURKA 0 | AURKB 0 | AURKC 0 | BLK 0 | BMX 0 | BRAF 0

CCN(CCCOc1ccc2c(Nc3cc(CC(=O)Nc4cccc(F)c4)[nH]n3)ncnc2c1)CCOP(=O)(O)O [Barasertib] (10 µM)
inactive: ABL1 = 0 | AKT1 = 0 | ALK 0 | ARAF 0 | AURKA 0 | AURKB 0 | AURKC 0 | BLK 0 | BMX 0 | BRAF 0

Cc1nc(-c2cnc(NC(C)C)n(C)c2=O)ccc1Oc1ccnc(-c2cnn(C)c2)c1 (2.5 µM)
inactive: ABL1 = 0 | AKT1 = 0 | ALK 0 | ARAF 0 | AURKA 0 | AURKB 0 | AURKC 0 | BLK 0 | BMX 0 | BRAF 0

COCCNCCc1cccc(Nc2ncc3c(n2)-c2ccccc2[C@H](c2ccccc2F)C3)c1 [Derazantinib] (2.5 µM)
inactive: ABL1 = 0 | AKT1 = 0 | ALK 0 | ARAF 0 | AURKA 0 | AURKB 0 | AURKC 0 | BLK 0 | BMX 0 | BRAF 0

CC(C)c1cnn2c(NCc3ccccc3)cc(NC[C@H]3CCNC[C@@H]3O)nc12 [Samuraciclib (hydrochloride)] (10 µM)
inactive: ABL1 = 0 | AKT1 = 0 | ALK 0 | ARAF 0 | AURKA 0 | AURKB 0 | AURKC 0 | BLK 0 | BMX 0 | BRAF 0

COc1cc(OC)cc(-c2cc3cnc(N)nc3nc2NC(=O)NC(C)(C)C)c1 (10 µM)
inactive: ABL1 = 0 | AKT1 = 0 | ALK 0 | ARAF 0 | AURKA 0 | AURKB 0 | AURKC 0 | BLK 0 | BMX 0 | BRAF 0

CCN(CC)CCCCNc1ncc2cc(-c3cc(OC)cc(OC)c3)c(NC(=O)NC(C)(C)C)nc2n1 (10 µM)
inactive: ABL1 = 0 | AKT1 = 0 | ALK 0 | ARAF 0 | AURKA 0 | AURKB 0 | AURKC 0 | BLK 0 | BMX 0 | BRAF 0

Cc1cccc([C@@H](CO)NC(=O)[C@@H](C)N2Cc3ccc(-c4nc(NC5CCOCC5)ncc4Cl)cc3C2=O)c1 [ERK1/2 inhibitor 1] (10 µM)
inactive: ABL1 = 0 | AKT1 = 0 | ALK 0 | ARAF 0 | AURKA 0 | AURKB 0 | AURKC 0 | BLK 0 | BMX 0 | BRAF 0

Cc1c(NC(=O)c2cc3c(s2)CCCC3)cccc1-c1cn(C)c(=O)c(Nc2ccc([C@@H]3C(=O)N(C)CCN3C)cc2)n1 (10 µM)
inactive: ABL1 = 0 | AKT1 = 0 | ALK 0 | ARAF 0 | AURKA 0 | AURKB 0 | AURKC 0 | BLK 0 | BMX 0 | BRAF 0

CCC(=O)N1CCN(c2ccc(-n3c(=O)ccc4cnc5ccc(-c6cnc7ccccc7c6)cc5c43)cc2C(F)(F)F)CC1 [Torin 1] (2 µM)
inactive: AKT1 = 0 | ALK 0 | ARAF 0 | AURKA 0 | AURKB 0 | AURKC 0 | BLK 0 | BMX 0 | BRAF 0
active: ABL1 = 1

COc1cc2ncn(-c3cc(OCc4ccccc4C(F)(F)F)c(C(N)=O)s3)c2cc1OC (10 µM)
inactive: ABL1 = 0 | AKT1 = 0 | ALK 0 | ARAF 0 | AURKA 0 | AURKB 0 | AURKC 0 | BLK 0 | BMX 0 | BRAF 0

CC(C)CC(=O)Nc1n[nH]c2c1CN(C(=O)C1CCN(C)CC1)C2(C)C (2.5 µM)
inactive: ABL1 = 0 | AKT1 = 0 | ALK 0 | ARAF 0 | AURKA 0 | AURKB 0 | AURKC 0 | BLK 0 | BMX 0 | BRAF 0

Sorted by heavy-atom count (rising): three of the compounds above.
COc1cc2ncn(-c3cc(OCc4ccccc4C(F)(F)F)c(C(N)=O)s3)c2cc1OC (10 µM)
inactive: ABL1 = 0 | AKT1 = 0 | ALK 0 | ARAF 0 | AURKA 0 | AURKB 0 | AURKC 0 | BLK 0 | BMX 0 | BRAF 0

Cc1cccc([C@@H](CO)NC(=O)[C@@H](C)N2Cc3ccc(-c4nc(NC5CCOCC5)ncc4Cl)cc3C2=O)c1 [ERK1/2 inhibitor 1] (10 µM)
inactive: ABL1 = 0 | AKT1 = 0 | ALK 0 | ARAF 0 | AURKA 0 | AURKB 0 | AURKC 0 | BLK 0 | BMX 0 | BRAF 0

CCC(=O)N1CCN(c2ccc(-n3c(=O)ccc4cnc5ccc(-c6cnc7ccccc7c6)cc5c43)cc2C(F)(F)F)CC1 [Torin 1] (2 µM)
inactive: AKT1 = 0 | ALK 0 | ARAF 0 | AURKA 0 | AURKB 0 | AURKC 0 | BLK 0 | BMX 0 | BRAF 0
active: ABL1 = 1
